Assay results: patent US11779628B2, “Use of cell-permeable peptide inhibitors of the JNK signal transduction pathway for the treatment of various diseases” (Xigen Inflammation Ltd., priority 2014, dated 2023)
For some assays here: Part of at least one peptide drawing is inferred or uncertain, most often the ends. For some assays here: At least one compound was matched to its structure with a doubt left. No end group written: not given here.

What was measured:
[1] = system: Recombinant JNK1, JNK2 and JNK3; test: Solid phase kinase assays with c-Jun, ATF2 and Elk1 as substrates; format: biochemical
[2] = system: JNKs from UV-light irradiated HeLa cells or IL-1 treated PTC cells; test: Phosphorylation of c-Jun by activated JNKs pulled down with GST-Jun; format: biochemical; conditions: 25 μM
[3] = system: JNK signaling in HeLa cells; test: Heterologous GAL4 system (GAL-Jun, 5×GAL-LUC reporter); format: cell-based; conditions: 1 μM
[4] = system: AP-1 DNA binding complex, HeLa cell nuclear extracts; test: Gel retardation assay with AP-1 probe; format: cell-based; conditions: TNF-alpha 5 ng/ml
[5] = system: Lewis rats, LPS-induced uveitis; test: Endotoxin-induced uveitis, duration of action after subconjunctival administration; format: in vivo, rat
[6] = 20 μg/eye, both eyes treated on the day of induction, 24 h after LPS
[7] = 20 μg/eye, both eyes treated on the day of induction, versus vehicle

| Compound | inhibition of JNK3 phosphorylation of Elk1 ([1]; 0-25 μM) | inhibition of c-Jun, ATF2 and Elk1 phosphorylation by JNKs ([1]; peptide doses as low as 2.5 μM) | prevention of phosphorylation of c-Jun by activated JNKs [2] | activation of c-Jun following MKK4 and MKK7 mediated activation of JNK (luciferase) [3] | activation of c-Jun in cells transfected with JNK3 [3] | formation of the AP-1 DNA binding complex [4] | EIU clinical score, Median [5, 6] | Inflammatory cells infiltrated into the aqueous humor, Mean ± SEM (n = 20) [5, 6] [cells/μL] | Inflammatory cells infiltrated into the aqueous humor, Median [5, 6] [cells/μL] | Reduction of clinical scores [5, 7] [%] | Reduction of leucocytes [5, 7] [%] | clinical score, median ([5]; methylprednisolone 20 μg/eye) | number of infiltrating cells in aqueous humor ([5]; methylprednisolone 20 μg/eye) | reduction of clinical score ([5]; methylprednisolone 20 μg/eye, Day 0) [%] |
| --- | --- | --- | --- | --- | --- | --- | --- | --- | --- | --- | --- | --- | --- | --- |
| GRKKRRQRRRPPRPKRPTTLNLFPQVPRSQD [L-TAT-IB1(s)] | absence of TAT-IB(s) inhibition of JNK3 phosphorylation of Elk1 | Nearly complete inhibition | efficiently prevented phosphorylation of c-Jun by activated JNKs | blocked activation of c-Jun following MKK4 and MKK7 mediated activation of JNK | inhibited JNK2 mediated activation of c-Jun | decrease the formation of the AP-1 DNA binding complex in the presence of TNF-alpha | – | – | – | – | – | – | – | – |
| C[C@H]1C[C@@H]2[C@H]([C@@H](O)C[C@@]3(C)[C@H]2CC[C@]3(O)C(=O)CO)[C@@]2(C)C=CC(=O)C=C12 [methylprednisolone, Methylprednisolone, reference compound] | – | – | – | – | – | – | 2.0 | 3170 ± 276 | 3385 | 50 | 2 | 2 | did not have significant difference in the number of infiltrating cells with that of vehicle | 50 |
